Taken from: PubChem BioAssay AID1259405 (NCATS, 2018)
In all, the deposit lists about 50,000 reagents; below is an unselected part. Over the whole deposit, about 4,000 (8%) are marked active. 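Mouse siRNA library applied to hamster cells; one well for each siRNA.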 Entries without a mark were called inactive. Reagents against one gene are numbered here.

- Purpose: 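Mouse-designed siRNAs used to find CHO productivity engineering targets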 (primary screen)
- System: Chinese hamster CHO-K1 ovary cells with stable secreted eGFP expression
- Knock-down reagent: single siRNA against mouse genes, 0.8 pmol siRNA per well (2 µl of 400 nM stock)
- Time to read-out: 3 days
- Read-out: 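Per-well intracellular GFP measured by laser scanning cytometry, plus viability from ATP luminescence, each relative to plate median of non-targeting control wells, in %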
- Reading the numbers: GFP, % of control: higher = more GFP per well, higher productivity; viability (ATP), % of control: higher = more viable cells (more ATP)
- Active means: 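Called active when intracellular GFP, relative to negative control, is at or above 120%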

no.	Target gene	reagent no.	GFP, % of control	viability (ATP), % of control
1	Degs1	1	79	81.5
2	Degs1	2	65.5	45.2
3	Degs1	3	48.5	47.3
4	Gne	1	59.6	53.2
5	Gne	2	117	90
6	Gne	3	60.1	43.9
7	Adrb2	1	108	95.3
8	Adrb2	2	72.4	59
9	Adrb2	3	70.6	78.7
10	Stmn1	1	71.4	52.9
11	Stmn1	2	87.8	122
12	Stmn1	3	159 (active)	102
13	Gldn	1	99.9	86.1
14	Gldn	2	81.8	67.1
15	Gldn	3	106	98.4
16	Rtf2	1	60.4	65
17	Rtf2	2	70.8	69.6
18	Rtf2	3	82.1	70.3
19	Tlr3	1	93.7	59.1
20	Tlr3	2	91.5	65.3
21	Tlr3	3	94.1	93.8
22	Ppp2r2d	1	112	124
23	Ppp2r2d	2	81.5	72
24	Ppp2r2d	3	85.8	83.8
25	Cep104	1	68	66.5
26	Cep104	2	66.3	72.3
27	Cep104	3	120 (active)	129
28	Aatf	1	66.3	86.6
29	Aatf	2	82.5	71.1
30	Pou6f2	1	89	81.5
31	Pou6f2	2	74.9	51.4
32	Pou6f2	3	73.7	75.1
33	Usf1	1	38.1	82.9
34	Usf1	2	79.4	92.5
35	Usf1	3	54.5	103
36	Gabrg2	1	63.7	77.7
37	Gabrg2	2	61.7	87.7
38	Gabrg2	3	66.6	95.9
39	Ptger2	1	36.9	26.3
40	Ptger2	2	87.5	87.7
41	Ptger2	3	70.6	71.7
42	Itln1	1	44	59
43	Itln1	2	100	73.5
44	Lrat	1	84	71.3
45	Lrat	2	24.5	94.7
46	Lrat	3	101	115
47	Dcaf7	1	90.9	61.4
48	Dcaf7	2	54	44.5
49	Dcaf7	3	66.5	83.3
50	Vwf	1	171 (active)	143
51	Vwf	2	88.3	79.7
52	Fgl2	1	87	76.7
53	Fgl2	2	160 (active)	93.6
54	Fgl2	3	106	129
55	Hoxa5	1	53	68.5
56	Hoxa5	2	56.9	74.6
57	Hoxa5	3	76.4	80
58	Edaradd	1	70.9	79.2
59	Edaradd	2	130 (active)	111
60	Edaradd	3	77	71
61	Mark4	1	105	74.9
62	Mark4	2	69.8	62.5
63	H2aj	1	101	87.1
64	H2aj	2	111	81.2
65	H2aj	3	75.6	68.4
66	Or12d16-ps1	1	76.6	60.8
67	Or12d16-ps1	2	59.9	84.8
68	Or12d16-ps1	3	85.8	98.3
69	Chrna4	1	42.5	56.5
70	Chrna4	2	25.8	48.7
71	Chrna4	3	69.4	81.2
72	Serpind1	1	21.7	36.8
73	Serpind1	2	44.6	67.6
74	Serpind1	3	64.3	83.8
75	Pcdh10	1	105	76.6
76	Pcdh10	2	63.3	75.4
77	Pcdh10	3	70.2	76.2
78	Panx1	1	57.1	80.7
79	Panx1	2	77	51.3
80	Panx1	3	62.5	75.9
81	Ak8	1	184 (active)	128
82	Ak8	2	120 (active)	105
83	Ak8	3	90.8	83.2
84	Npr3	1	52.1	42.7
85	Npr3	2	63	75.4
86	Npr3	3	22.6	17.5
87	Tent4a	1	86.4	92.2
88	Tent4a	2	80	51.4
89	Agfg2	1	104	85.5
90	Agfg2	2	99.5	72.4
91	Agfg2	3	73.6	65.1
92	Kcne4	1	92.2	67.3
93	Kcne4	2	124 (active)	96.1
94	Gsto1	1	154 (active)	120
95	Gsto1	2	57.6	98.7
96	Gsto1	3	117	112
97	Swap70	1	78.6	80.1
98	Swap70	2	83.3	96.2
99	Klhl5	1	67.4	73.5
100	Klhl5	2	51.6	45.3
101	Klhl5	3	104	83.9
102	Smoc1	1	68.4	84.8
103	Smoc1	2	71.1	69
104	Smoc1	3	73.7	65.5
105	Disp2	1	50.5	84.7
106	Disp2	2	44.9	69.9
107	Disp2	3	64.7	86.7

In a second layout: 13 of the entries above
Agfg2 #3
- GFP, % of control: 73.6
- viability (ATP), % of control: 65.1

Kcne4 #1
- GFP, % of control: 92.2
- viability (ATP), % of control: 67.3

Kcne4 #2
- GFP, % of control: 124 (active)
- viability (ATP), % of control: 96.1

Gsto1 #1
- GFP, % of control: 154 (active)
- viability (ATP), % of control: 120

Gsto1 #2
- GFP, % of control: 57.6
- viability (ATP), % of control: 98.7

Gsto1 #3
- GFP, % of control: 117
- viability (ATP), % of control: 112

Swap70 #1
- GFP, % of control: 78.6
- viability (ATP), % of control: 80.1

Swap70 #2
- GFP, % of control: 83.3
- viability (ATP), % of control: 96.2

Klhl5 #1
- GFP, % of control: 67.4
- viability (ATP), % of control: 73.5

Klhl5 #2
- GFP, % of control: 51.6
- viability (ATP), % of control: 45.3

Klhl5 #3
- GFP, % of control: 104
- viability (ATP), % of control: 83.9

Smoc1 #1
- GFP, % of control: 68.4
- viability (ATP), % of control: 84.8

Smoc1 #2
- GFP, % of control: 71.1
- viability (ATP), % of control: 69
